Results deposited as PubChem BioAssay AID743121 (NCATS, 2013).

Purpose: 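Knock-downs that sensitise breast cancer cells to camptothecin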 (primary screen)
Cell system: MDA-MB-231 cells, a human breast cancer line
Reagents: single siRNA against human genes, 20 nM siRNA (0.8 pmol per well)
Duration: 120 h (drug added 48 h after transfection, read 72 h later)
Treatment: camptothecin 20 nM (about EC30) for 72 h; vehicle 0.1% DMSO in parallel plates
Measurement: 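Cell viability by ATP luminescence (CellTiter-Glo) as % of non-targeting siRNA wells, and the log2 ratio of viability without drug over viability with camptothecin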
Scale: log2 vehicle/camptothecin viability: higher = stronger sensitisation to camptothecin; viability with camptothecin and viability without drug: higher = more viable cells
Rule for the call: 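Each gene scored by redundant siRNA activity (RSA) over its individual siRNA ratios; a gene is called active at p < 0.001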
The deposit covers about 26,000 reagents; this is a part drawn at random. In the full data, 167 (0.63%) are marked active. 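Calls are per gene from RSA p-values that are not deposited; an individual active-marked siRNA can sensitise only weakly.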 Unmarked entries are inactive. The numbers tell different reagents against one gene apart.

| Gene | reagent no. | log2 vehicle/camptothecin viability | viability with camptothecin (% of control) | viability without drug (% of control) |
| --- | --- | --- | --- | --- |
| SLC9B2 | 1 | 0.59 | 72.2 | 109 |
| SLC9B2 | 2 | 0.105 | 71.3 | 76.7 |
| SLC9B2 | 3 | -0.0152 | 111 | 110 |
| SLC9B2 | 4 | -0.0619 | 112 | 107 |
| TAMALIN | 1 | -0.39 | 84.6 | 64.6 |
| TAMALIN | 2 | -0.252 | 57.1 | 48 |
| TAMALIN | 3 | -0.0573 | 58 | 55.8 |
| TAMALIN | 4 | -0.731 | 50.3 | 30.3 |
| CACNA1D | 1 | -0.16 | 65.3 | 58.4 |
| CACNA1D | 2 | -0.132 | 71 | 64.8 |
| CACNA1D | 3 | -0.498 | 113 | 80.3 |
| CACNA1D | 4 | 0.213 | 72.3 | 83.8 |
| ZNF467 | 1 | -0.0578 | 105 | 101 |
| ZNF467 | 2 | 0.309 | 51.3 | 63.6 |
| ZNF467 | 3 | -0.295 | 86.8 | 70.8 |
| ZNF467 | 4 | -0.399 | 18.7 | 14.1 |
| HFE | 1 | -0.51 | 92.2 | 64.7 |
| HFE | 2 | 0.374 | 58.5 | 75.8 |
| HFE | 3 | -0.088 | 72.7 | 68.4 |
| HFE | 4 | -0.291 | 132 | 108 |
| NR1I2 | 1 | 0.35 | 77.1 | 98.3 |
| NR1I2 | 2 | 0.325 | 87.8 | 110 |
| NR1I2 | 3 | -0.652 | 102 | 65.1 |
| NR1I2 | 4 | -0.0583 | 71 | 68.2 |
| OR5P2 | 1 | -0.467 | 94 | 68 |
| OR5P2 | 2 | -0.0311 | 39.7 | 38.9 |
| OR5P2 | 3 | -0.328 | 116 | 92.6 |
| OR5P2 | 4 | -0.25 | 83.9 | 70.6 |
| ADA | 1 | 0.349 | 13.7 | 17.4 |
| ADA | 2 | -0.421 | 108 | 80.5 |
| ADA | 3 | -0.269 | 53.4 | 44.3 |
| GPR157 | 1 | -0.0511 | 81 | 78.2 |
| GPR157 | 2 | -0.509 | 70.3 | 49.4 |
| GPR157 | 3 | -0.158 | 22.8 | 20.5 |
| GPR157 | 4 | -0.301 | 82.3 | 66.8 |

Next part, starting with the last 11 of the part before.
| Gene | reagent no. | log2 vehicle/camptothecin viability | viability with camptothecin (% of control) | viability without drug (% of control) |
| --- | --- | --- | --- | --- |
| OR5P2 | 1 | -0.467 | 94 | 68 |
| OR5P2 | 2 | -0.0311 | 39.7 | 38.9 |
| OR5P2 | 3 | -0.328 | 116 | 92.6 |
| OR5P2 | 4 | -0.25 | 83.9 | 70.6 |
| ADA | 1 | 0.349 | 13.7 | 17.4 |
| ADA | 2 | -0.421 | 108 | 80.5 |
| ADA | 3 | -0.269 | 53.4 | 44.3 |
| GPR157 | 1 | -0.0511 | 81 | 78.2 |
| GPR157 | 2 | -0.509 | 70.3 | 49.4 |
| GPR157 | 3 | -0.158 | 22.8 | 20.5 |
| GPR157 | 4 | -0.301 | 82.3 | 66.8 |
| PLCL1 | 1 | 0.286 | 44 | 53.7 |
| PLCL1 | 2 | -0.275 | 124 | 102 |
| PLCL1 | 3 | -0.222 | 122 | 105 |
| PLCL1 | 4 | -0.303 | 111 | 90.2 |
| GP2 | 1 | -0.202 | 110 | 95.7 |
| GP2 | 2 | -0.318 | 45.5 | 36.5 |
| GP2 | 3 | 0.0539 | 87.5 | 90.8 |
| GP2 | 4 | -0.201 | 71.2 | 62 |
| KIF13A | 1 | 0.039 | 98.1 | 101 |
| KIF13A | 2 | -0.267 | 74.8 | 62.1 |
| KIF13A | 3 | 0.0783 | 84.5 | 89.3 |
| KDM4A | 1 | -0.18 | 110 | 97.3 |
| KDM4A | 2 | -0.41 | 21.7 | 16.3 |
| KDM4A | 3 | -0.0104 | 45.9 | 45.6 |
| KDM4A | 4 | -0.528 | 41.3 | 28.7 |
| BBC3 | 1 | 0.949 | 15.5 | 29.9 |
| BBC3 | 2 | 0.0507 | 100 | 104 |
| BBC3 | 3 | -0.0438 | 101 | 97.5 |
| BBC3 | 4 | 0.0934 | 48.3 | 51.5 |
| PLEKHO2 | 1 | -0.0546 | 103 | 99.2 |
| PLEKHO2 | 2 | -0.134 | 99.7 | 90.8 |
| PLEKHO2 | 3 | 0.19 | 59.2 | 67.6 |
| PLEKHO2 | 4 | -0.221 | 61.7 | 53 |
| INTS12 | 1 | -0.438 | 70.4 | 52 |
| INTS12 | 2 | -0.413 | 10.8 | 8.09 |
| INTS12 | 3 | 0.0898 | 54.4 | 57.9 |
| INTS12 | 4 | -0.338 | 89.1 | 70.5 |
| CDCA5 | 1 | -0.287 | 73.1 | 60 |
| CDCA5 | 2 | -0.465 | 98.2 | 71.2 |
| CDCA5 | 3 | -0.302 | 77.6 | 62.9 |
| CDCA5 | 4 | -0.325 | 61.1 | 48.8 |
| REEP4 | 1 | -0.398 | 100 | 75.9 |
| REEP4 | 2 | -0.288 | 108 | 88.4 |
| REEP4 | 3 | -0.176 | 78.5 | 69.5 |
| REEP4 | 4 | -0.388 | 75.3 | 57.5 |
| TNFAIP8 | 1 | -0.516 | 47.4 | 33.2 |
| TNFAIP8 | 2 | -0.0766 | 93.1 | 88.2 |
| TNFAIP8 | 3 | -0.216 | 115 | 98.6 |
| TNFAIP8 | 4 | 0.211 | 78.3 | 90.7 |
| ARHGDIA | 1 | -0.0478 | 42.9 | 41.5 |
| ARHGDIA | 2 | -0.358 | 103 | 80.2 |
| ARHGDIA | 3 | -0.36 | 110 | 85.3 |
| NUP153 | 1 | 0.117 | 31 | 33.6 |
| NUP153 | 2 | 0.83 | 11.5 | 20.4 |
| NUP153 | 3 | 0.312 | 42.4 | 52.6 |
| RNF145 | 1 | -0.348 | 25.8 | 20.3 |
| RNF145 | 2 | -0.407 | 81.8 | 61.7 |
| RNF145 | 3 | 0.806 | 21.8 | 38.1 |
| RNF145 | 4 | -0.166 | 55.8 | 49.7 |
| CHPF | 1 | 0.136 | 80.7 | 88.7 |
| CHPF | 2 | -0.79 | 62.9 | 36.4 |
| CHPF | 3 | 0.085 | 62 | 65.7 |
| CHPF | 4 | -0.38 | 74.2 | 57 |
